Patent US20220324954A1
No constants are given. Whether binding was seen depends on the method and setting. Some results given as binding are weak or reduced against the parent protein; the word gives no strength.

The chains behind the UniProt entries cited, without tags or fusion partners. Where a name states a change or a piece, a line headed by the entry shows the natural chain unless it says otherwise. A line that says so, or that is headed by a name, gives the form on record, which may keep a tag or linker.
human VEGFA (P15692, form named): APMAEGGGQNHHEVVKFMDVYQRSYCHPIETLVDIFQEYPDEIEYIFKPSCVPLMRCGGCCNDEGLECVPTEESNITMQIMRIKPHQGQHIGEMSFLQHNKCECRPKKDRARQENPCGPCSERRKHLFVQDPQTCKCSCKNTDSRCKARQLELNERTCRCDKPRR

Tests used:
human VEGFA (human) [1] = target: human VEGFA (human) (UniProt P15692); assay: ELISA (FIG. 8 legend)
human VEGFA (human) [2] = target: human VEGFA (human) (UniProt P15692); assay: ELISA (FIG. 9 legend)
mouse VEGFA (mouse) [3] = target: T1, mouse VEGFA (mouse) (UniProt Q00731); assay: ELISA (FIG. 9 legend)
T1 sequence (biotinylated (sites not stated), looked up): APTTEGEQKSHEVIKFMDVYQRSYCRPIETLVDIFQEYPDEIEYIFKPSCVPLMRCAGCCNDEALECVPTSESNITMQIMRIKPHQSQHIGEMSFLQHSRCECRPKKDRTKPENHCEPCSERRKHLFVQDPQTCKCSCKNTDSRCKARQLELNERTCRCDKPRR

human VEGFA (human) [4] = target: human VEGFA (human) (UniProt P15692); assay: ELISA, antibody coated at 1 ug/mL, biotinylated ligand at 1 ug/mL, SA-HRP (FIG. 8)
human VEGFA (human) [5] = target: human VEGFA (human) (UniProt P15692); assay: ELISA, antibody coated at 1 ug/mL, biotinylated ligand at 1 ug/mL, SA-HRP (FIG. 9)
mouse VEGFA (mouse) [6] = target: T1, mouse VEGFA (mouse); assay: as above

binding (human VEGFA (human) [1]): binds
binding (human VEGFA (human) [2]): binds
binding (mouse VEGFA (mouse) [3]): binds
binding (human VEGFA (human) [4]): binds
binding (human VEGFA (human) [5]): binds
binding (mouse VEGFA (mouse) [6]): binds
B1: hu bi-Nb24(Y) (VHH)
chain: EVQLQESGGGLVQPGGSLRLSCTASGFTFDDPDVGWFRQAPGNECELVSTISKDGSTYYTDSVKGRFTISRDYAKNTVYLQMNSLRAEDTAVYYCAADSNPIAPIRTCLGWYNYWGQGTLVTVSSGGGGSGGGSEVQLQESGGGLVQPGGSLRLSCTASGFTFDDPDVGWFRQAPGNECELVSTISKDGSTYYTDSVKGRFTISRDYAKNTVYLQMNSLRAEDTAVYYCAADSNPIAPIRTCLGWYNYWGQGTLVTVSS
